Values from PubChem BioAssay AID743458 (Peter MacCallum Cancer Centre, 2014).
Here is an unselected part of about 1,800 deposited reagents. Of all reagents, 732 (41%) got an active call. 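Calls are per siRNA reagent; a gene was deemed confirmed only if most of its four siRNAs scored.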 Unmarked entries are inactive. No sequences are given here.

Screen: 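Retest earlier hits with independent siRNAs per gene for restoring vorinostat sensitivity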 (follow-up of hits)
Cells: human HCT116-VR colon cancer cells made resistant to vorinostat
Reagent: single siRNA or pool against human genes, 25 nM per single siRNA
Time to read-out: about 72 h after transfection, including 24 h of drug
Challenge: vorinostat, 2.5 µM final, for 24 h
Detection: 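Cell viability by fluorescence and apoptosis by caspase 3/7 luminescence under vorinostat, background-corrected, averaged across two plate copies and given as fold change versus mock transfection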
Direction: viability relative to mock: higher = more living cells than mock; caspase activity relative to mock: higher = more apoptosis than mock
Hit rule: 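Active means a reduced-viability or caspase-activation class, anything else inactive; classes could only be given to wells that looked healthy when left untreated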

viability relative to mock,caspase activity relative to mock,viability hit class,caspase hit class,Gene,PubChem SID
1.14,1.27,no change,no change,CNGA1 (cyclic nucleotide gated channel subunit alpha 1),SID134236033
1.02,1.01,no change,no change,CNGA1 (cyclic nucleotide gated channel subunit alpha 1),SID134236034
0.5 (active),2.06,reduced viability,no change,CNGA1 (cyclic nucleotide gated channel subunit alpha 1),SID134236035
0.57,2.34,no change,no change,CNGA1 (cyclic nucleotide gated channel subunit alpha 1),SID134236036
0.83,1.14,no change,no change,FAM177B (family with sequence similarity 177 member B),SID134308229
0.99,1.02,no change,no change,FAM177B (family with sequence similarity 177 member B),SID134308230
1.06,1.14,no change,no change,FAM177B (family with sequence similarity 177 member B),SID135618171
0.12 (active),3.15,reduced viability,caspase activation,FAM177B (family with sequence similarity 177 member B),SID135618172
0.72,1.9,no change,no change,NTN1 (netrin 1),SID134254753
0.82,1.97,no change,no change,NTN1 (netrin 1),SID134254755
0.15 (active),1.33,reduced viability,no change,NTN1 (netrin 1),SID134254756
0.6,1.68,no change,no change,NTN1 (netrin 1),SID135613619
0.8,2.13,no change,no change,DCUN1D2 (defective in cullin neddylation 1 domain containing 2),SID134285681
1.02,1.32,no change,no change,DCUN1D2 (defective in cullin neddylation 1 domain containing 2),SID134285682
0.92,0.97,no change,no change,DCUN1D2 (defective in cullin neddylation 1 domain containing 2),SID134285683
0.81,0.92,no change,no change,DCUN1D2 (defective in cullin neddylation 1 domain containing 2),SID152153934
1.06 (active),4.65,no change,caspase activation,DCUN1D2 (defective in cullin neddylation 1 domain containing 2),SID152153960
1.06,1.86,no change,no change,HYKK (hydroxylysine kinase),SID134291141
0.94,0.96,no change,no change,HYKK (hydroxylysine kinase),SID134291142
0.24 (active),3.52,reduced viability,caspase activation,HYKK (hydroxylysine kinase),SID134291143
0.56 (active),0.9,reduced viability,no change,HYKK (hydroxylysine kinase),SID134291144
1.08,1.21,no change,no change,RWDD2A (RWD domain containing 2A),SID134266409
0.78 (active),4.64,no change,caspase activation,RWDD2A (RWD domain containing 2A),SID134266410
0.82 (active),2.98,no change,caspase activation,RWDD2A (RWD domain containing 2A),SID134266411
0.82 (active),3.13,no change,caspase activation,RWDD2A (RWD domain containing 2A),SID134266412
0.84,2.44,no change,no change,RECK (reversion inducing cysteine rich protein with kazal motifs),SID134252963
0.54 (active),6.41,reduced viability,caspase activation,RECK (reversion inducing cysteine rich protein with kazal motifs),SID152150835
0.94,1.64,no change,no change,RECK (reversion inducing cysteine rich protein with kazal motifs),SID152151536
0.8,1.21,no change,no change,RECK (reversion inducing cysteine rich protein with kazal motifs),SID152153481
0.3 (active),2.05,reduced viability,no change,"POLR2K (RNA polymerase II, I and III subunit K)",SID134254869
0.5 (active),1.84,reduced viability,no change,"POLR2K (RNA polymerase II, I and III subunit K)",SID134254871
0.5 (active),4.89,reduced viability,caspase activation,"POLR2K (RNA polymerase II, I and III subunit K)",SID134254872
0.92,1.53,no change,no change,"POLR2K (RNA polymerase II, I and III subunit K)",SID135613630
0.55 (active),3.69,reduced viability,caspase activation,CES3 (carboxylesterase 3),SID135619899
0.72,1.56,no change,no change,CES3 (carboxylesterase 3),SID135619900
0.72,1.68,no change,no change,CES3 (carboxylesterase 3),SID135619901
0.17 (active),2.3,reduced viability,no change,CES3 (carboxylesterase 3),SID135619902
0.71 (active),5.83,no change,caspase activation,"GCOM1 (GCOM1, MYZAP-POLR2M combined locus)",SID134271153
0.68 (active),3.23,no change,caspase activation,"GCOM1 (GCOM1, MYZAP-POLR2M combined locus)",SID134271154
0.8,1.04,no change,no change,"GCOM1 (GCOM1, MYZAP-POLR2M combined locus)",SID135614973
0.82,1.19,no change,no change,"GCOM1 (GCOM1, MYZAP-POLR2M combined locus)",SID135614974
0.93,2.36,no change,no change,NCOA4 (nuclear receptor coactivator 4),SID134249301
0.22 (active),4.15,reduced viability,caspase activation,NCOA4 (nuclear receptor coactivator 4),SID134249302
0.56 (active),1.45,reduced viability,no change,NCOA4 (nuclear receptor coactivator 4),SID134249303
0.96,1.12,no change,no change,NCOA4 (nuclear receptor coactivator 4),SID134249304
0.52 (active),3.38,reduced viability,caspase activation,SERTAD1 (SERTA domain containing 1),SID134286293
0.9 (active),3.3,no change,caspase activation,SERTAD1 (SERTA domain containing 1),SID134286295
0.72,1.48,no change,no change,SERTAD1 (SERTA domain containing 1),SID134286296
0.7 (active),2.75,no change,caspase activation,SERTAD1 (SERTA domain containing 1),SID135616269
0.64,1.65,no change,no change,NOAZFP (nucleolar atypical zinc finger),SID134263237
0.96,1.23,no change,no change,NOAZFP (nucleolar atypical zinc finger),SID134263238
1.03,0.86,no change,no change,NOAZFP (nucleolar atypical zinc finger),SID134263239
0.92,0.82,no change,no change,NOAZFP (nucleolar atypical zinc finger),SID134263240
1.05,2.25,no change,no change,GOLGA1 (golgin A1),SID134253701
0.79 (active),6.7,no change,caspase activation,GOLGA1 (golgin A1),SID134253702
1.05,1.04,no change,no change,GOLGA1 (golgin A1),SID134253703
0.66,1.77,no change,no change,GOLGA1 (golgin A1),SID134253704

9 entries from above, reduced to “caspase hit class”:
NCOA4 (nuclear receptor coactivator 4) [SID134249301] = no change
NCOA4 (nuclear receptor coactivator 4) [SID134249302] = caspase activation (active)
NCOA4 (nuclear receptor coactivator 4) [SID134249303] = no change (active)
NCOA4 (nuclear receptor coactivator 4) [SID134249304] = no change
SERTAD1 (SERTA domain containing 1) [SID134286293] = caspase activation (active)
SERTAD1 (SERTA domain containing 1) [SID134286295] = caspase activation (active)
SERTAD1 (SERTA domain containing 1) [SID134286296] = no change
SERTAD1 (SERTA domain containing 1) [SID135616269] = caspase activation (active)
NOAZFP (nucleolar atypical zinc finger) [SID134263237] = no change
